Results published in PMC11233663, “ZBP1 condensate formation synergizes Z-NAs recognition and signal transduction” (Cell Death & Disease, 2024).

Protein sequences, listed by entry. Tags and fused reporters are not part of them. Lines headed by an entry give the natural chain unless they say otherwise; changes in a name come on top.
UniProt Q9H171: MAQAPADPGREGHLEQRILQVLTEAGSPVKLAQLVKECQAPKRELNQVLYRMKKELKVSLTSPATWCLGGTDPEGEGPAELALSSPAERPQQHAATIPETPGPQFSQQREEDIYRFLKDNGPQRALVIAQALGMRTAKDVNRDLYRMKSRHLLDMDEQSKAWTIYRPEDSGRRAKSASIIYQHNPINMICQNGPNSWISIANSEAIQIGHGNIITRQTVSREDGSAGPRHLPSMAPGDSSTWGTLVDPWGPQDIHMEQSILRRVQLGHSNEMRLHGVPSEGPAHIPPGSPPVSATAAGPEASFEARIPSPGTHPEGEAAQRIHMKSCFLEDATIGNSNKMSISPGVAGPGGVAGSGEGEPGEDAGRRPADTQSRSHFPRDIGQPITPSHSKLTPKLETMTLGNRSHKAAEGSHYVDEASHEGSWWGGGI
UniProt Q9Y572: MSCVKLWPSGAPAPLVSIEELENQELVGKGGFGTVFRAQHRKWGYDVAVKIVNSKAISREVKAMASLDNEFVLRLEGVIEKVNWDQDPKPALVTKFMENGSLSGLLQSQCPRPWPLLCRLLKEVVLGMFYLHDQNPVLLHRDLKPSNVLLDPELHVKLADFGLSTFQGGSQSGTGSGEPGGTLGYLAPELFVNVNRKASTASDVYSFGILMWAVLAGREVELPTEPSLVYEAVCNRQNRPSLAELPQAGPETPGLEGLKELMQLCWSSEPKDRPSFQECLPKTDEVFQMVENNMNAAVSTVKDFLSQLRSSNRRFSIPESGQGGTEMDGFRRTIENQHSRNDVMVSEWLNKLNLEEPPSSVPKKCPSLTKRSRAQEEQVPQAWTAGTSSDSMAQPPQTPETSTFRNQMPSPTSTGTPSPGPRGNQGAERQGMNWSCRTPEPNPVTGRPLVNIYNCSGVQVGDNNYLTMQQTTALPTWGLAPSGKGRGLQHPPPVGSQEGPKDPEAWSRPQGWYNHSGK

Target: GFP-tagged ZBP1 with mutations in IQIG (RHIM1 mutation) (human) (UniProt Q9H171)
Assay: co-IP; HT-29 cell lysates immunoprecipitated with an anti-GFP antibody, immunoblotted for RIP3

binding: binds
Substance: endogenous RIP3 (from UniProt Q9Y572 1-518)

No constants are given. Whether binding was seen depends on the method and setting. Binding seen in cells or lysates may run through a third protein. A result given as binding can be weak or reduced; the word gives no strength.
